From US12642851B2 (Barinthus Biotherapeutics North America, Inc., priority 2022, dated 2026)

Columns and labels:
[1] = general procedure: Fmoc solid-phase peptide synthesis; conditions: conjugation step; for crude HPLC purity: AUC at 220 nm
[2] = Fmoc solid-phase peptide synthesis; conditions: whole synthesis, AUC at 220 nm

Q: For “(a-Mannose-PEG3)4K2K-PEG24-(X-DBCO)-Ahx-2B3W2”, which “crude HPLC purity” value [1] is on record?
A: The value was 97.5%.

Q: With (a-Mannose-PEG3)4K2K-PEG24-Ahx-W5 as the substance, how does the “purity (crude or final not stated)” value [2] read?
A: Its value is 97.9%.

Q: With DBCO-Ahx-(Glu)3(Trp)2 as the substance, how does the “final HPLC purity” value ([1]; HPLC AUC at 220 nm or 254 nm) read?
A: The value was greater than 95%.

Q: Which conjugation yield [1] does the source give for DBCO-Ahx-WWE(Torin-1-Piperazine)WW here?
A: The conjugation yield was 40% yield.

Q: For DBCO-Ahx-WWE(VZ-PAB-Torin-1)WW, which conjugation yield [1] is on record?
A: Its conjugation yield is 33% yield.

Q: For DBCO-Ahx-WWE(VZ-Torin-1)WW, which conjugation yield [1] is on record?
A: The conjugation yield was 35% yield.

Q: With DBCO-Ahx-WWEWW as the substance, how does the conjugation yield [1] read?
A: The conjugation yield was 46%.

Q: Which conjugation yield [1] does the source give for DBCO-Ahx-WWK(Everolimus)WW here?
A: Its conjugation yield is 31% yield.

Q: Which conjugation yield [1] does the source give for DBCO-Ahx-WWK(ZV-Everolimus)WW here?
A: The conjugation yield was 29% yield.

Q: For DBCO-Ahx-WWK(ZV-Torin-1-C1)WW, which conjugation yield [1] is on record?
A: The conjugation yield was 21% yield.

Q: With DBCO-Ahx-WWK(ZV-Torin-1-C3)WW as the substance, how does the conjugation yield [1] read?
A: The conjugation yield was 20% yield.

Q: For DBCO-Ahx-WWWWW, which conjugation yield [1] is on record?
A: The conjugation yield was 71.9%.

Q: And the “final HPLC purity” value ([1]; HPLC AUC at 220 nm or 254 nm)?
A: Its value is 92.6%.

Q: Which conjugation yield [1] does the source give for Fmoc-Ahx-WWK(ZV)WW here?
A: The conjugation yield was 58% yield.

Q: Which results are given for “OH-PEG24-VZQLQPFPQPELPYPQPQLPYPQPQPFRSPVZK(DBCO)”?
A: conjugation yield [1]: 63% yield; final HPLC purity ([1]; 220 nm): 97.8% AUC at 220 nm

Q: Which “crude HPLC purity” value [1] does the source give for TT-PEG12-(N3-DBCO)-Ahx-W5 here?
A: The value was 83%.

Q: Which “crude HPLC purity” value [1] does the source give for TT-PEG24-(N3-DBCO)-Ahx-W5 here?
A: Its value is 84%.
